Drawing on PubChem BioAssay AID2685 (National Center for Advancing Translational Sciences (NCATS), 2010), this text covers cell number change and AC50 for 58 compounds.

Structures are written as SMILES. The list shows a part of the results. The main result of the screen is listed elsewhere. These columns were measured beside it and carry no call. The list favours compounds with an active or inconclusive main result. The note in brackets gives the kind of curve behind each potency; many fits are weak.

The test in a line: qHTS Assay for Lipid Storage Modulators in Drosophila S3 Cells.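 As to cell number change: cells counted by Cell Tracker Red CMTPX staining in the red channel.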 The note with it: BODIPY lipid droplet fluorescence, 18-24 h; for cell number change: measured here: cell count max response, cells fed with added oleic acid. Put shortly:
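Laser-scanning cytometry quantifies lipid droplet accumulation (500–530 nm total intensity; droplet/cell object ratio) in oleic acid-fed (400 uM added) Drosophila S3 cells treated with a concentration series. 20 uM Triacsin C defined 100% inhibition.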
On the technique in general: Quantitative high-throughput screening tests each substance at several concentrations.

Where [1] appears, read: measured here: cell number channel AC50, cells fed with added oleic acid.
The mark [2] stands for this setting: measured here: lipid fluorescence (Fed channel) AC50, cells fed with added oleic acid.

On to `CO[C@@]12[C@H](COC(N)=O)C3=C(C(=O)C(C)=C(N)C3=O)N1C[C@@H]1N[C@@H]12`, for which the cell number change was -35.9%. For the same compound, the half-maximal activity concentration (AC50) (in general, the midpoint of the concentration-response curve, whichever way the signal moves) under setting [1] is 1.3 µM [falling, full curve, poor fit]. For the same compound, the AC50 under setting [2] is 1.16 µM [falling, full curve].

Turning to `NC(=O)c1ccc(NC(=O)CS(=O)(=O)c2cn(CC(=O)N3CCCCC3)c3ccccc23)cc1`, the cell number change was determined as 27.2%. For the same compound, the AC50 under setting [2] is 6.51 µM [rising, single point].

Regarding `CCOc1ccc(NC(=O)CS(=O)(=O)c2cn(C)c3ccccc23)cc1`, the cell number change was determined as 1.72%. The half-maximal activity concentration (AC50) under setting [1] is 6.51 µM [rising, single point]. The AC50 under setting [2] is 6.51 µM [rising, single point].

On to `CN(C)S(=O)(=O)c1ccc(C(=O)OCC(=O)NCc2ccco2)cc1`, for which the cell number change is -21.6%.

`CCn1c(SCC(=O)Nc2ccc(N(C)C)cc2)nnc1C1CC1`: the cell number change amounted to 11.2%. Also, the AC50 under setting [2] is 1.16 µM [falling, single point].

`CCCNC(=O)COC(=O)c1ccccc1OCC(=O)Nc1ccc(Br)cc1`: the cell number change worked out at 27.7%. In addition, under setting [2], the concentration at half-maximal activity (AC50) is 0.92 µM [rising, full curve].

As for `COc1ccc(C)cc1Nc1nc(-c2ccccc2O)nc2ccccc12`, the cell number change is 10.7%.

With `O=C(NCCCCc1ccccc1)C1CC(c2cccc([N+](=O)[O-])c2)=NO1` (configuration not stated), the cell number change is -22.6%. The half-maximal activity concentration (AC50) under setting [2] is 0.146 µM [falling, full curve, poor fit].

Turning to `Cc1ccc(C(C(=O)NC2CCCCC2)N(C(=O)c2csnn2)C2CCCC2)o1` (configuration not stated), the cell number change is -59%. Moreover, under setting [1], the AC50 was 16.4 µM [falling, partial curve]. Also, the half-maximal activity concentration (AC50) under setting [2] was 2.91 µM [falling, full curve].

Consider `CC1CCc2c(sc3ncnc(N4CCOCC4)c23)C1` (configuration not stated), for which the cell number change is -25.8%. Besides, under setting [2], the AC50 is 29.1 µM [rising, single point].

`CCOc1ccc(C(C)=O)cc1CN1C(=O)NC2(CCCCCCC2)C1=O`: the cell number change was found to be 103%. Further, the AC50 under setting [1] was 0.146 µM [rising, full curve, poor fit].

`CCN(CC(=O)Nc1ccc(NC(C)=O)cc1)C(=O)c1ccccc1Sc1ccccc1C#N`: the cell number change was -22.3%. Under setting [2], the half-maximal activity concentration (AC50) was 20.6 µM [rising, partial curve, poor fit].

For the compound `CCOC(=O)C1CCN(S(=O)(=O)c2ccc3c(c2)CC(=O)N3)CC1`, the cell number change was 1.73%. Also, under setting [2], the AC50 is 16.4 µM [falling, single point].

As for `O=C(NCc1ccccc1CN1CCCC1)c1cccc(S(=O)(=O)N2CCOCC2)c1`, the cell number change was determined as 5.48%. Moreover, the AC50 under setting [2] was 6.51 µM [rising, single point].

`CCOC(=O)C1CCCN(Cc2nc(CC3CC3)no2)C1` (configuration not stated): the cell number change is -4.95%. Under setting [2], the AC50 is 29.1 µM [rising, single point].

With `Cc1cc(OCC(=O)NC2CC2)c2c(C)c(C)c(=O)oc2c1`, the cell number change is 1.32%.

Take `CCn1cc([N+](=O)[O-])c(C(=O)N2CCN(C(=O)c3ccco3)CC2)n1`: the cell number change is -15%. Besides, the half-maximal activity concentration (AC50) under setting [2] was 0.326 µM [rising, full curve, poor fit].

Take `CC(=O)C(Cl)C(=O)Nc1ccccc1` (configuration not stated): the cell number change is -15%.

As to `CC(=O)c1cccc(NS(=O)(=O)c2csc(C(N)=O)c2)c1`, the cell number change was -19.9%. Under setting [2], the concentration at half-maximal activity (AC50) was 0.146 µM [falling, full curve].

For the compound `CC(C)c1ccc(-n2nnnc2SCC(=O)NC2CC2)cc1`, the cell number change is -38.2%. Besides, under setting [1], the AC50 was 23.1 µM [falling, partial curve, poor fit]. Besides, under setting [2], the AC50 was 29.1 µM [falling, single point].

On to `CCOC(=O)c1ccc(NC(=O)CSc2nnc(CC)o2)cc1`, for which the cell number change turned out to be 31.9%. Also, under setting [1], the AC50 is 0.731 µM [rising, partial curve]. Further, the concentration at half-maximal activity (AC50) under setting [2] is 20.6 µM [rising, single point].

`CN(C(=O)CSc1nc(-c2ccccc2)cn1N)C(c1ccccc1)c1ccccc1`: the cell number change is -11.2%. Under setting [2], the concentration at half-maximal activity (AC50) was 0.651 µM [rising, full curve].

With `O=C(Nc1nccs1)c1cccc(S(=O)(=O)N2CCCCC2)c1`, the cell number change is 3.51%. In addition, the AC50 under setting [2] is 4.11 µM [rising, single point].

On to `CCCC1(c2ccccc2)NC(=O)N(CC(=O)Nc2ccccc2C(F)(F)F)C1=O` (configuration not stated), for which the cell number change is -22.1%.

In the case of `Cc1ccc(S(=O)(=O)NCCc2nc3ccccc3[nH]2)cc1`, the AC50 under setting [2] was 6.51 µM [rising, partial curve, poor fit].

As for `O=C(CSc1ncc(-c2ccccc2)nn1)NCc1ccco1`, the cell number change stood at 179%. The half-maximal activity concentration (AC50) under setting [1] was 18.4 µM [rising, partial curve]. Also, under setting [2], the concentration at half-maximal activity (AC50) was 18.4 µM [rising, partial curve].

Turning to `Cc1noc(C(=O)N(C)c2ccccc2)c1Cl`, the cell number change was -1.39%. Also, the concentration at half-maximal activity (AC50) under setting [2] is 10.3 µM [falling, partial curve].

Regarding `COc1ccc(N2CCN(CC(=O)N3N=CCC3c3ccccc3)CC2)cc1` (configuration not stated), the cell number change came out at 34.1%.

Take `COc1ccc(N(C)S(=O)(=O)c2cccc(C(=O)N3CCN(S(=O)(=O)c4ccc(C)cc4)CC3)c2)cc1`: the cell number change was -14.8%.

In the case of `Cc1ccc(NC(=O)CCSc2nnc3ccccn23)cc1`, the cell number change is -14.6%. Also, under setting [2], the concentration at half-maximal activity (AC50) is 29.1 µM [falling, single point].

For the compound `COc1ccccc1N(C)S(=O)(=O)c1ccc(C(=O)NC2CCCCC2)cc1`, the cell number change is -11.5%. The AC50 under setting [2] was 0.0206 µM [falling, full curve, poor fit].

Turning to `COc1ccc(NC(=O)C(=O)NCC2CCCN2S(=O)(=O)c2cc(C)ccc2C)cc1` (configuration not stated), the AC50 under setting [1] is 6.51 µM [rising, single point].

Consider `Cc1ccc(S(=O)(=O)NC(C)(C)CN2CCc3ccccc3C2)cc1`, for which the cell number change worked out at 21.8%. Further, the AC50 under setting [1] is 0.00517 µM [rising, full curve, poor fit]. Further, the AC50 under setting [2] was 0.00411 µM [rising, full curve, poor fit].

Regarding `Cc1ccc(-n2ncc3c(NCc4cccnc4)ncnc32)c(C)c1`, the cell number change was -35.8%. The AC50 under setting [1] is 16.4 µM [falling, partial curve]. In addition, the concentration at half-maximal activity (AC50) under setting [2] is 29.1 µM [falling, single point].

On to `CNC(=O)C(=O)NCCN1CCN(S(=O)(=O)c2ccc3ccccc3c2)CC1`, for which the half-maximal activity concentration (AC50) under setting [2] is 29.1 µM [rising, single point].

As for `NC(=O)C1CCCN(S(=O)(=O)c2ccccc2)C1` (configuration not stated), the cell number change was -7.87%. Moreover, the concentration at half-maximal activity (AC50) under setting [2] was 3.66 µM [falling, full curve].

Regarding `O=C(CC1CCCCC1)NCCCN1CCOCC1`, the cell number change was determined as 4.32%. Also, the half-maximal activity concentration (AC50) under setting [2] is 0.517 µM [rising, full curve].

Turning to `CC(C(=O)Nc1cccc([N+](=O)[O-])c1)N1C(=O)NC2(CCCC2)C1=O` (configuration not stated), the cell number change stood at 30.3%. Under setting [1], the AC50 was 29.1 µM [rising, single point]. Besides, the AC50 under setting [2] was 0.112 µM [rising, full curve, poor fit].

Regarding `CN(C)CCNC(=O)c1ccccc1-c1cc2ccccc2c(=O)o1`, the cell number change came out at 18.9%.

On to `CCc1cccc(C)c1NC(=O)CSc1nc2ccncc2[nH]1`, for which the cell number change was -6.49%. Further, the half-maximal activity concentration (AC50) under setting [2] was 8.2 µM [falling, partial curve, poor fit].

On to `O=C(c1ccc(CSc2nc3ccncc3[nH]2)cc1)N1CCN(c2cccc(Cl)c2)CC1`, for which the cell number change is -64.8%. Moreover, the AC50 under setting [1] is 13 µM [falling, partial curve]. Under setting [2], the AC50 was 14.6 µM [falling, partial curve].

Turning to `CC(C)C(=O)Nc1nc2cc3c(cc2s1)OCCO3`, under setting [2], the AC50 was 3.66 µM [rising, partial curve].

`O=C(NC(=S)NNC(=O)c1cc2ccccc2cc1O)c1ccco1`: the cell number change is 5.57%. Further, the AC50 under setting [1] is 0.164 µM [falling, full curve, poor fit].

With `O=C1Nc2cc(C(=O)N3CCOCC3)ccc2S/C1=C\c1ccccc1`, the cell number change is -6.13%. Moreover, under setting [2], the half-maximal activity concentration (AC50) was 29.1 µM [falling, single point].

For `COc1cc(OC)cc(C(=O)NNC(=O)C2CSC3(C)CCC(=O)N23)c1` (configuration not stated), the cell number change is -0.423%. Further, the AC50 under setting [2] was 3.26 µM [falling, partial curve, poor fit].

Consider `O=C1c2ccccc2C(=O)N1Cc1nc2ccccc2c(=O)n1CCCN1CCOCC1`, for which, under setting [2], the concentration at half-maximal activity (AC50) was 6.51 µM [rising, single point].

In the case of `COc1cc(-c2noc(C)c2/C=C/c2ccc(N)cc2)cc(OC)c1OC`, the cell number change is -2.27%.

Turning to `COc1ccc(N2C(=NC(=O)C3CCCCC3)SC3CS(=O)(=O)CC32)c(OC)c1` (configuration not stated), the cell number change was -18.9%.

For the compound `c1ccc(-c2noc(-c3ccno3)n2)nc1`, the cell number change is -13.6%. Further, the concentration at half-maximal activity (AC50) under setting [2] is 1.64 µM [falling, partial curve, poor fit].

On to `Cc1c(Br)c(O)c(Br)c2sc(=O)oc12`, for which the cell number change was -44.2%. Further, the AC50 under setting [1] was 29.1 µM [falling, single point]. The AC50 under setting [2] is 23.1 µM [falling, partial curve, poor fit].

With `CCn1c(SCC(=O)Nc2ccc(C)cc2)nnc1-c1cnccn1`, the cell number change stood at 32.5%. The concentration at half-maximal activity (AC50) under setting [1] is 1.46 µM [rising, full curve, poor fit]. In addition, the AC50 under setting [2] was 29.1 µM [rising, single point].

As to `O=C(O)CN1C(=O)C2C3C=CC(C3)C2C1=O` (configuration not stated), the cell number change is -165%. In addition, the half-maximal activity concentration (AC50) under setting [1] is 25.9 µM [falling, partial curve]. For the same compound, the half-maximal activity concentration (AC50) under setting [2] was 23.1 µM [falling, partial curve].

For `O=C(O)c1cccc(NCc2cccnc2)c1`, the cell number change is -80.2%. In addition, the half-maximal activity concentration (AC50) under setting [1] was 16.4 µM [falling, partial curve]. For the same compound, under setting [2], the AC50 was 16.4 µM [falling, partial curve].

For the compound `COc1ccc(NC(=O)c2nn(C34CC5CC(CC(C5)C3)C4)cc2[N+](=O)[O-])cc1`, the cell number change is -0.879%. Besides, the concentration at half-maximal activity (AC50) under setting [2] was 0.058 µM [falling, partial curve].

With `N#Cc1ccccc1S(=O)(=O)N1CCN(C(=O)CN2C(=O)NC3(CCCC3)C2=O)CC1`, the cell number change was found to be 30.6%. Moreover, the half-maximal activity concentration (AC50) under setting [1] was 2.91 µM [rising, single point].

For the compound `O=c1[nH]c2cc(Cl)ccc2n(CCNc2ncc(C(F)(F)F)cc2Cl)c1=O`, the cell number change was 32.1%. Further, the half-maximal activity concentration (AC50) under setting [1] was 32.6 µM [rising, single point]. In addition, under setting [2], the concentration at half-maximal activity (AC50) was 18.4 µM [rising, single point].

`CCCn1c2ccccc2c2cnn(CC(=O)NCCN(CC)CC)c(=O)c21`: the cell number change is -22.9%. In addition, the half-maximal activity concentration (AC50) under setting [1] was 0.164 µM [falling, full curve, poor fit]. Further, the AC50 under setting [2] is 29.1 µM [falling, single point].

As to `COc1cccc(NC(=O)CSc2nc3ccccc3c(=O)n2C)c1`, the cell number change is -47.8%. Under setting [1], the AC50 was 32.6 µM [falling, single point].
